Results as given in PMC4827801.
No constants are given. Whether binding was seen depends on the method and setting. In cells and extracts the contact can be indirect. A yes stands for co-enrichment or nearness to the bait. Other partners may have been found.

The chains behind the UniProt entries cited, without tags or fusion partners.
UniProt O15379: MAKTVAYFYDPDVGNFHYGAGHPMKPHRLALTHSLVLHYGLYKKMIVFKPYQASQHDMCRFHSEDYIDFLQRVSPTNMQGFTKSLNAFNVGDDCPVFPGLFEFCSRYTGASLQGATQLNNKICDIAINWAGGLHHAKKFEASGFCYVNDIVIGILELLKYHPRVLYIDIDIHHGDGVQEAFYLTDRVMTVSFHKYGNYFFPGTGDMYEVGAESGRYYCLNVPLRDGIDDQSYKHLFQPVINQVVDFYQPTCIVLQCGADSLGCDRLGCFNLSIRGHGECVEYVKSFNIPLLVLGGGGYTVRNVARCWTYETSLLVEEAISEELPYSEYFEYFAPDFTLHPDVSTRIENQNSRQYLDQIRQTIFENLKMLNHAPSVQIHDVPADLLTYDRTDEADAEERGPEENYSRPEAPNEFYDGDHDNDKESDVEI
UniProt O75376: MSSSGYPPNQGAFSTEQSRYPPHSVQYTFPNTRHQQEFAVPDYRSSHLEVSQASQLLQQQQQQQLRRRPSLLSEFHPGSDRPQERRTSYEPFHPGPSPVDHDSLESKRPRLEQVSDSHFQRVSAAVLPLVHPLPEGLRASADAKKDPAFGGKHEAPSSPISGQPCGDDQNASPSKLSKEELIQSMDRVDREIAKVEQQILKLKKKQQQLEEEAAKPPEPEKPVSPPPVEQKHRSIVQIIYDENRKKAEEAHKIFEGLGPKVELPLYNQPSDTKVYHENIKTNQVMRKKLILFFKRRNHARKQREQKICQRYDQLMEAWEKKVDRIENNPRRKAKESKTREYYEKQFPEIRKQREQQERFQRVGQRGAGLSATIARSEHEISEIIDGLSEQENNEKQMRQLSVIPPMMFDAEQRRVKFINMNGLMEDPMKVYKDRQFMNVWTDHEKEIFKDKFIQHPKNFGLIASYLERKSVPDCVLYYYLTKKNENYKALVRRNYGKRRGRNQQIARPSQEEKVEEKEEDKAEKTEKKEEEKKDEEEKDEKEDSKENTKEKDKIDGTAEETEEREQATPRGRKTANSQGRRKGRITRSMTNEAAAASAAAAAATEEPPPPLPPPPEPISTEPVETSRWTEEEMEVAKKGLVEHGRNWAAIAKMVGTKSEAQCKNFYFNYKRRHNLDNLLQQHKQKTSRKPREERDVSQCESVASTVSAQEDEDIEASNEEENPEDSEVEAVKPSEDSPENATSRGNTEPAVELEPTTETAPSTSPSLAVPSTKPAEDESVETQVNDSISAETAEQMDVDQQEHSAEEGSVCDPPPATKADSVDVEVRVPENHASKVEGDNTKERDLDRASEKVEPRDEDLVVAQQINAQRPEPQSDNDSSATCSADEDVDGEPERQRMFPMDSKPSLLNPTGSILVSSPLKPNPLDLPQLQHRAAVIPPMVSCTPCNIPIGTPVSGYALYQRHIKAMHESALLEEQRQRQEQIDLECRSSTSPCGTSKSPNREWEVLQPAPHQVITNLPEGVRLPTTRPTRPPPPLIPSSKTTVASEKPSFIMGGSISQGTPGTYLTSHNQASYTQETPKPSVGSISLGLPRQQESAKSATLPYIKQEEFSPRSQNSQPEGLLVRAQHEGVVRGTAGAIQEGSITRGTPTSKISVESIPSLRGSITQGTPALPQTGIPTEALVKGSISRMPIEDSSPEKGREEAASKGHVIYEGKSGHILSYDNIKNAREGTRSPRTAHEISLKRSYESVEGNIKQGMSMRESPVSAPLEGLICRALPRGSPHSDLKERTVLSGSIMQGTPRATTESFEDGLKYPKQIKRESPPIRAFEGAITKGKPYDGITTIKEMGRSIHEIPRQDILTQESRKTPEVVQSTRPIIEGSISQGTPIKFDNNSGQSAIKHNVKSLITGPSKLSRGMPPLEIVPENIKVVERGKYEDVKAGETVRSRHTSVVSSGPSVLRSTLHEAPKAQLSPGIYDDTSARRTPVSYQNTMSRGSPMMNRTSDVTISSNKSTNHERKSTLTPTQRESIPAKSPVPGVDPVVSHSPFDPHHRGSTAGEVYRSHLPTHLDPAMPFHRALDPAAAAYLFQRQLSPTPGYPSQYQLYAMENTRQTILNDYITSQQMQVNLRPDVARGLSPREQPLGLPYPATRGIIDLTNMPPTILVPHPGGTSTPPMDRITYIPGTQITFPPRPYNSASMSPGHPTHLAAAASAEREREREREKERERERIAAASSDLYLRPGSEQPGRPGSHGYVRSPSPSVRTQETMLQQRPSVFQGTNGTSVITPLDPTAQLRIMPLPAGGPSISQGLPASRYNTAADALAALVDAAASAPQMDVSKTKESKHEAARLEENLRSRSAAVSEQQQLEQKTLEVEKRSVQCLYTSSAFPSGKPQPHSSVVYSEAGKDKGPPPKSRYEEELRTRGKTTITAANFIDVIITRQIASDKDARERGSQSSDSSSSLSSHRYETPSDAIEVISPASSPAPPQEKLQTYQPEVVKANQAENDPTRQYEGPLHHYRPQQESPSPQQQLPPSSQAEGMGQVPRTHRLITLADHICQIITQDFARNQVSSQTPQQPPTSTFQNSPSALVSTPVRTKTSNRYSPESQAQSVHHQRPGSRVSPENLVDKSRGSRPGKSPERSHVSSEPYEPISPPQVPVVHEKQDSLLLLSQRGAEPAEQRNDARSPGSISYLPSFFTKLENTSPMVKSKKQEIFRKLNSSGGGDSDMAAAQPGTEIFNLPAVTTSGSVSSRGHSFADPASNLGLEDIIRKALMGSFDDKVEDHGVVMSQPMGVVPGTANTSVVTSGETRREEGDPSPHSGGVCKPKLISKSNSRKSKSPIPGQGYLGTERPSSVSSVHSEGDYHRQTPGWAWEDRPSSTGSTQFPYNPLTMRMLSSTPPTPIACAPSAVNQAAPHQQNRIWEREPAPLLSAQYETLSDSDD

Experiments:
[1] = biological target: HPV16 E8^E2C-HA (Human papillomavirus 16) (UniProt P0DKA0); assay: affinity purification with mass spectrometry; anti-HA immunoprecipitates (magnetic anti-HA beads) from 3 x 10^8 stable 293T cells expressing HA-tagged E8^E2C, against 293T/pIRES-puro empty vector control; NanoLC-MS/MS
[2] = biological target: HPV31 E8^E2C-HA (Human papillomavirus 31); assay: as above

In the case of “HDAC3 (histone deacetylase 3) (from UniProt O15379 1-428) (enzyme)”, the binding [1] is reported as “binds”.

For NCoR (from UniProt O75376 1-2440), the binding [1] was “binds”.

B1: TBL1 (transducin-beta like 1) (protein, UniProt O60907 1-577)
chain: MTELAGASSSCCHRPAGRGAMQSVLHHFQRLRGREGGSHFINTSSPRGEAKMSITSDEVNFLVYRYLQESGFSHSAFTFGIESHISQSNINGTLVPPAALISILQKGLQYVEAEISINEDGTVFDGRPIESLSLIDAVMPDVVQTRQQAFREKLAQQQASAAAAAAAATAAATAATTTSAGVSHQNPSKNREATVNGEENRAHSVNNHAKPMEIDGEVEIPSSKATVLRGHESEVFICAWNPVSDLLASGSGDSTARIWNLNENSNGGSTQLVLRHCIREGGHDVPSNKDVTSLDWNTNGTLLATGSYDGFARIWTEDGNLASTLGQHKGPIFALKWNRKGNYILSAGVDKTTIIWDAHTGEAKQQFPFHSAPALDVDWQNNTTFASCSTDMCIHVCRLGCDRPVKTFQGHTNEVNAIKWDPSGMLLASCSDDMTLKIWSMKQEVCIHDLQAHNKEIYTIKWSPTGPATSNPNSNIMLASASFDSTVRLWDIERGVCTHTLTKHQEPVYSVAFSPDGKYLASGSFDKCVHIWNTQSGNLVHSYRGTGGIFEVCWNARGDKVGASASDGSVCVLDLRK
In the case of B1, the binding [2] is reported as “binds” and the binding [1] is reported as “binds”.
